Reference: patent US6620587B1, “Ribosome complexes as selection particles for in vitro display and evolution of proteins” (Discerna Limited, priority 1997, dated 2003)
For at least one compound, name, drawing or mass did not settle the structure.

Test system: soluble DB3 VH/K fragment
Test: Inhibition of free DB3 VH/K by free steroids in ELISA
Assay type: binding, mouse

| SMILES | efficiency of the steroids in inhibition (order) |
| --- | --- |
| CC(=O)C1CCC2C3CC(OC(=O)CCC(=O)O)C4=CC(=O)CCC4(C)C3CCC12C (stereo not shown) [P6, progesterone-6-HMS] | P11>P3>P6>P21 |
| CC(=O)[C@H]1CC[C@H]2[C@@H]3CCC4=C/C(=N/OCC(=O)O)CC[C@]4(C)[C@H]3CC[C@]12C [P3, progesterone-3-carboxymethyloxime] | P11>P3>P6>P21 |
| C[C@]12CC[C@H]3[C@@H](CCC4=CC(=O)CC[C@@]43C)[C@@H]1CC[C@@H]2C(=O)COC(=O)CCC(=O)O [P21, progesterone-21-HMS] | P11>P3>P6>P21 |
| CC(=O)[C@H]1CC[C@H]2[C@@H]3CCC4=CC(=O)CC[C@]4(C)[C@H]3[C@H](OC(=O)CCC(=O)O)C[C@]12C [progesterone-11α-HMS, progesterone-11α-hemisuccinate] | P11>P3>P6>P21 |
